Laboratory results as given in the supplement of paper PMC10849652.
The list shows a part of the results.

Protein sequences, listed by entry. Tags and fused reporters are not part of them. Lines headed by an entry give the natural chain unless they say otherwise; changes in a name come on top.
UniProt Q6PID8: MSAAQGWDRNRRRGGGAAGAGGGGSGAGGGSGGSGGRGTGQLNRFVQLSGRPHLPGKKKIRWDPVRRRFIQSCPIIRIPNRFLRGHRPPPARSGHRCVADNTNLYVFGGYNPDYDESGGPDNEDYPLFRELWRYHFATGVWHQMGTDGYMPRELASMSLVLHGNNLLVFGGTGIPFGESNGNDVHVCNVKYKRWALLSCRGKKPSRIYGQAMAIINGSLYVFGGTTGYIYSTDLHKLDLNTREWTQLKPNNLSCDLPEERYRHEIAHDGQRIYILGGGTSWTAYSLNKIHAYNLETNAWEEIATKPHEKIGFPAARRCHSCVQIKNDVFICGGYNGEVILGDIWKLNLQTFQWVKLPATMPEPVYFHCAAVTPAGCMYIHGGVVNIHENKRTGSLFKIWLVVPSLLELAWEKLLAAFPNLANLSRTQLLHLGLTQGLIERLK
UniProt O43731: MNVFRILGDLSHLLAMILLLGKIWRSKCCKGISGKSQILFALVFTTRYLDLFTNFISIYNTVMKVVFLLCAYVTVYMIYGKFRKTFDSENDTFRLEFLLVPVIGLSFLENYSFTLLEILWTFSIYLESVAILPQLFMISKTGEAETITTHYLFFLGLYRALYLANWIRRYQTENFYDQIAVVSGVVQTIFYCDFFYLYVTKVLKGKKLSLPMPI
UniProt O60870: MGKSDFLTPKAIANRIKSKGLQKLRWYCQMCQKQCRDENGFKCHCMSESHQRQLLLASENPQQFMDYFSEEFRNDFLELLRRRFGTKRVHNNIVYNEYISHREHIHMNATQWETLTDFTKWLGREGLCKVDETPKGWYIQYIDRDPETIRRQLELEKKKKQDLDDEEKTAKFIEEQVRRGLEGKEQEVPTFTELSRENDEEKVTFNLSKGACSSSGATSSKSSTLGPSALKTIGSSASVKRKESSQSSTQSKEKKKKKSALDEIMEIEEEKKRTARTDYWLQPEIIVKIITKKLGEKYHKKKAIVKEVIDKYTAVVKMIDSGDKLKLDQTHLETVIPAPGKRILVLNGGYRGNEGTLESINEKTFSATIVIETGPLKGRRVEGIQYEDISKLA
UniProt A6NCN2: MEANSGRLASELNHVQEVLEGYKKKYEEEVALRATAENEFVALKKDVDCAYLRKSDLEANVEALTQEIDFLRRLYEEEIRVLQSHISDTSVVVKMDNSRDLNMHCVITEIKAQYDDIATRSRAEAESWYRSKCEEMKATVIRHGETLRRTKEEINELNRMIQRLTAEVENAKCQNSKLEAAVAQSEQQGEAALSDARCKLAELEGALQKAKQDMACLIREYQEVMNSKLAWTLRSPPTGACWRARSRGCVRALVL
UniProt Q6P597: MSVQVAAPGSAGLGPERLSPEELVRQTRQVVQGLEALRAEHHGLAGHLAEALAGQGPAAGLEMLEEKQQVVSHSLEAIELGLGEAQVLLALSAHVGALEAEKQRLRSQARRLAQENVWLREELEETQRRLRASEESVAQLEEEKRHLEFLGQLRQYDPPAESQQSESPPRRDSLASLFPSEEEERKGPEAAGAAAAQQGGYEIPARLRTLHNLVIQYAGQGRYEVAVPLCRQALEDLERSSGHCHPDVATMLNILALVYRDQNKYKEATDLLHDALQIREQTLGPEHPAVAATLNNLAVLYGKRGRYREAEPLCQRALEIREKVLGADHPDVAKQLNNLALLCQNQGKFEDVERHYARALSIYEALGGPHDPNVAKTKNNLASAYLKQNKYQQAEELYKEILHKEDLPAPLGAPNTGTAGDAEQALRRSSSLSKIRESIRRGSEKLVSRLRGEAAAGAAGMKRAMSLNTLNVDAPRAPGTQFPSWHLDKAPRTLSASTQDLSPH
UniProt O43896: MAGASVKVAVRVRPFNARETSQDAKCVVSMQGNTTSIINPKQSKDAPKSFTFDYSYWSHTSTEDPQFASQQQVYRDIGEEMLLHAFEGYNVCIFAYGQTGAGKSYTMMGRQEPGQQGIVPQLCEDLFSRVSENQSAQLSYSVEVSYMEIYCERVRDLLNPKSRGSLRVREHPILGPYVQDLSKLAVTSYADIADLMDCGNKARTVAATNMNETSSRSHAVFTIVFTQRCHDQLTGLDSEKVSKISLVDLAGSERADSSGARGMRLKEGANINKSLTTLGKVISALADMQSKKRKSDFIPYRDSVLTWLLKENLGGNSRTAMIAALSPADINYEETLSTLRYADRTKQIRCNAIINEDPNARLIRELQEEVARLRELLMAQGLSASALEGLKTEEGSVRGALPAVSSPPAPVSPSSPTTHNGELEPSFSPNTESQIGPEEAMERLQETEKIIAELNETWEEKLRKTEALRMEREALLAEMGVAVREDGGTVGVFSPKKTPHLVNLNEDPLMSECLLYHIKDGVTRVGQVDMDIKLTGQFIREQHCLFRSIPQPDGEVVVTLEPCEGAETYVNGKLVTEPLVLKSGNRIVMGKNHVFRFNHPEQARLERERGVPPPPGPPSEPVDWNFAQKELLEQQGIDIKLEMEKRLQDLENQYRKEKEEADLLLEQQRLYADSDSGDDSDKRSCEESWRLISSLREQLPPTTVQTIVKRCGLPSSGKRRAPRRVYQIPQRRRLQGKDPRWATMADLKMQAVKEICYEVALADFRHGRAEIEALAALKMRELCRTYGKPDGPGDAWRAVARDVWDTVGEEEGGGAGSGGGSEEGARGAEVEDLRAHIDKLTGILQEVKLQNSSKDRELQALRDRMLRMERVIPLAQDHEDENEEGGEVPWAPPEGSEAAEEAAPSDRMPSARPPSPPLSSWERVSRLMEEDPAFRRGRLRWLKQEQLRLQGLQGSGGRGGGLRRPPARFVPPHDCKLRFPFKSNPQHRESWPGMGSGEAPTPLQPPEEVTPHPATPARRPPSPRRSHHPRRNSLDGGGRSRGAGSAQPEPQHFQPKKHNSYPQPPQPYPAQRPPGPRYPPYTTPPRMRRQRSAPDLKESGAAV
UniProt Q9BW19: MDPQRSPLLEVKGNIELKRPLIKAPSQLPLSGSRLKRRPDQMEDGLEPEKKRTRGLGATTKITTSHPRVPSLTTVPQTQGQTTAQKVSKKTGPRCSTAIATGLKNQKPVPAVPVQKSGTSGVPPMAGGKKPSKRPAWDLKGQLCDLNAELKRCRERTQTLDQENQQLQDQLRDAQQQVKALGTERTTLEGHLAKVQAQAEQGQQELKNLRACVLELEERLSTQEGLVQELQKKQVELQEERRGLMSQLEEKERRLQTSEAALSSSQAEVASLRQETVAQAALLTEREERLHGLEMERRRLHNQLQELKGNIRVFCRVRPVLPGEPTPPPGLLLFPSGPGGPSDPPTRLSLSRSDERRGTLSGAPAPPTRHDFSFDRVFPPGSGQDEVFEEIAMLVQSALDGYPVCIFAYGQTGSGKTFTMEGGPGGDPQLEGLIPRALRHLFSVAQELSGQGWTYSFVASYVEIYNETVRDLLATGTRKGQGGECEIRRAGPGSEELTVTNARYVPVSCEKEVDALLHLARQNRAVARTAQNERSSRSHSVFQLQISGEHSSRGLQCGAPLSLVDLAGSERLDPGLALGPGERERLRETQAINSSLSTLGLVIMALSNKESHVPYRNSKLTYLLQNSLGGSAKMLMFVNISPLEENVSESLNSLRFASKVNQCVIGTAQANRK
UniProt O75037: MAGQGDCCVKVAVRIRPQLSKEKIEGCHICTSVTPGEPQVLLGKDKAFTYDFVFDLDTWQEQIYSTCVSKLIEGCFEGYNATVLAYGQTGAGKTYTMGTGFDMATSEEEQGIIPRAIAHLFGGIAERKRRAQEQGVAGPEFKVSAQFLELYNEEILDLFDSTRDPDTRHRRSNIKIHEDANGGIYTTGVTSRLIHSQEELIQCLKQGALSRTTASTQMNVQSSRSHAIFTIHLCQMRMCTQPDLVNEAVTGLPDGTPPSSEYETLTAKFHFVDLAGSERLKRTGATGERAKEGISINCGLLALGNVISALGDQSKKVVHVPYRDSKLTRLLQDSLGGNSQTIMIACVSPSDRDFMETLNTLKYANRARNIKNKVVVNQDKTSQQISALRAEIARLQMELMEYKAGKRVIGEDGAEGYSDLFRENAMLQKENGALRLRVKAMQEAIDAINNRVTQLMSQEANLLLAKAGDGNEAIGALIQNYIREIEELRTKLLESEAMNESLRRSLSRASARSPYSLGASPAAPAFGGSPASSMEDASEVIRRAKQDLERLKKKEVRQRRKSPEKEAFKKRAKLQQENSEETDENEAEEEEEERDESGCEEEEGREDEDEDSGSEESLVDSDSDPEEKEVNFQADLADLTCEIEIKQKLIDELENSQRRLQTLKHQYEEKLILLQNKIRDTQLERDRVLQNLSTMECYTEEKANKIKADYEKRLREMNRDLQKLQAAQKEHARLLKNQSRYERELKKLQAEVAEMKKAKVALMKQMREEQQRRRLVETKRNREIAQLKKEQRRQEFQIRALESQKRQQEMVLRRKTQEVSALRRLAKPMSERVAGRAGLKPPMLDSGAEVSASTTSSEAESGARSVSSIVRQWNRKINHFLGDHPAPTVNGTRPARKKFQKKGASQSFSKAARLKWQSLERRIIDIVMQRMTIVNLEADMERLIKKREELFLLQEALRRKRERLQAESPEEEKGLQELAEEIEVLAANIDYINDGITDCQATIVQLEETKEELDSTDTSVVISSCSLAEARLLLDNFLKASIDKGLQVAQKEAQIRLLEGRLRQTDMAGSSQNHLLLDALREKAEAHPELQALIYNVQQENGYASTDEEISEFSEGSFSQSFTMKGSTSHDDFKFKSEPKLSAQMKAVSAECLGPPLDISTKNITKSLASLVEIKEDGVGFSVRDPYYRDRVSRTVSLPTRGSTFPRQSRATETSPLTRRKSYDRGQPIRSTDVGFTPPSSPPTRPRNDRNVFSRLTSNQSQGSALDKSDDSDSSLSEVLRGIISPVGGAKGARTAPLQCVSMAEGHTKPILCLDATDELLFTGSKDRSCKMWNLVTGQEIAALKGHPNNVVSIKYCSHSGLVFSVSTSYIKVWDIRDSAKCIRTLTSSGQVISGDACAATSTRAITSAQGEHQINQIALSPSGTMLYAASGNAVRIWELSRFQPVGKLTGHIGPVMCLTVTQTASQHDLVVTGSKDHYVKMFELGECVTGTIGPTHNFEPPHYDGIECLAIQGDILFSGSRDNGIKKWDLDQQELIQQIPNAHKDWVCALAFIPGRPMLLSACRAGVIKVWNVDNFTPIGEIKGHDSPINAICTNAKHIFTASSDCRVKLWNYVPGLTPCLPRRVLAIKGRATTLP

Experiments:
Experiment in all cases: log2 fold change, soluble protein after heating vs DMSO (PISA); higher = thermal stabilisation; K562 cells, 10 uM, 30 min; active = over 0.2 and 3.5 SD of the protein, either way, in both replicates (recomputed)
volasertib = compound: CC[C@@H]1C(=O)N(C)c2cnc(Nc3ccc(C(=O)N[C@H]4CC[C@H](N5CCN(CC6CC6)CC5)CC4)cc3OC)nc2N1C(C)C [volasertib]
In short: (§1)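 K562 cells at 2×10^6 cells/mL were treated with 10 μM compound for 30 min. Aliquots were heated for 3 min across 48°C-58°C, pooled, and extracted in PBS with 0.5% NP-40 at 4°C; soluble protein was the supernatant after 21,000xg for 90 min. Soluble protein was quantified by TMTpro 16plex LC-MS/MS with channel sums equalised, and reported as log2 fold change in thermal stability against DMSO controls, with values from duplicates.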

[1] = compound: CCn1cc(-c2ccnc3[nH]c(-c4cccc(CN(C)C)c4)cc23)c(-c2ccc(NC(=O)N(C)C)cc2)n1
In short: as §1

[2] = compound: CN1CCC(CNc2ccc3ncc(-c4cccc(OC(F)(F)F)c4)n3n2)CC1
In short: as §1

Tubastatin A = compound: CN1CCc2c(c3ccccc3n2Cc2ccc(C(=O)NO)cc2)C1 [Tubastatin A]
In short: as §1

[3] = compound: CNC(=O)C1=CC=CC=C1NC2=NC(=NC=C2Cl)NC3=C(C=C(C=C3)N4CCOCC4)OC
In short: as §1

[4] = compound: CC[C@H](C)N1C=C(C2=C(C=C(C=C21)C3=CN=C(C=C3)N4CCNCC4)C(=O)NCC5=C(C=C(NC5=O)C)C)C
In short: as §1

epoxomicin = compound: CC[C@H](C)[C@@H](C(=O)N[C@@H]([C@@H](C)O)C(=O)N[C@@H](CC(C)C)C(=O)[C@]1(CO1)C)NC(=O)[C@H]([C@@H](C)CC)N(C)C(=O)C [epoxomicin]
In short: as §1

[5] = compound: CN(C)CC(=O)Nc1ccc2[nH]c(=O)c3ccccc3c2c1
In short: as §1

rosiglitazone = compound: CN(CCOC1=CC=C(C=C1)C[C@H]2C(=O)NC(=O)S2)C3=CC=CC=N3 (racemic) [rosiglitazone]
In short: as §1

[6] = compound: CN1C2=C(C3=C1C(=O)N(N=C3)CC4=CC(=CC=C4)N)SC(=C2)S(=O)C
In short: as §1

saracatinib = compound: CN1CCN(CCOc2cc(OC3CCOCC3)c3c(Nc4c(Cl)ccc5c4OCO5)ncnc3c2)CC1 [saracatinib]
In short: as §1

sotrastaurin = compound: CN1CCN(c2nc(C3=C(c4c[nH]c5ccccc45)C(=O)NC3=O)c3ccccc3n2)CC1 [sotrastaurin]
In short: as §1

defactinib = compound: CNC(=O)c1ccc(Nc2ncc(C(F)(F)F)c(NCc3nccnc3N(C)S(C)(=O)=O)n2)cc1 [defactinib]
In short: as §1

[7] = compound: CNc1nc(-c2ccc3c(N)n[nH]c3c2)cc(N2C[C@@H](C(=O)NC3CCCCC3)CC[C@H]2C)n1
In short: as §1

[8] = compound: COC(=O)[C@H](CCSC)NC(=O)C1=C(C=C(C=C1)NC[C@H](CS)N)C2=CC=CC=C2
In short: as §1

[9] = compound: CCn1c(C(=O)N(C2CC2)C2CC2)cc2c3c(ncn3C)c(Nc3cc(C)n(C)n3)nc21
In short: as §1

alvocidib = compound: CN1CC[C@H](c2c(O)cc(O)c3c(=O)cc(-c4ccccc4Cl)oc23)[C@H](O)C1 [alvocidib]
In short: as §1

Measured: log2 fold change

KLHDC10 (UniProt Q6PID8)
inactive: volasertib -0.045 | [1] 0.069 | [2] 0.022 | Tubastatin A 0.418

KIF21A (UniProt H0YI78)
inactive: [3] -0.012

KIDINS220 isoform 2 (UniProt Q9ULH0)
inactive: [4] -0.182 | epoxomicin -0.037 | [5] -0.186 | rosiglitazone -0.063 | [6] 0.11 | saracatinib -0.331 | sotrastaurin 0.013 | Tubastatin A -0.042 | defactinib 0.026 | [7] -0.169 | [8] -0.105

KDELR3 (UniProt O43731)
inactive: [4] -0.008 | [9] -0.001 | rosiglitazone -0.085 | [6] 0.011 | saracatinib 0.374 | Tubastatin A -0.142 | [3] 0.084 | [7] -0.091

KSR2 (UniProt Q6VAB6)
inactive: epoxomicin 0.109 | [9] 0.048 | [1] 0.209 | [2] -0.007 | sotrastaurin -0.096 | [3] -0.094

KIN (UniProt O60870)
inactive: [1] 0.184 | [2] 0.249 | sotrastaurin -0.085

KHSRP (UniProt M0R3J3)
inactive: epoxomicin -0.056

KRT87P (UniProt A6NCN2)
inactive: rosiglitazone 1.15

KLC3 isoform 3 (UniProt Q6P597)
inactive: volasertib -0.158 | sotrastaurin -0.093 | Tubastatin A -0.132

KIF1C (UniProt O43896)
inactive: rosiglitazone -0.026 | sotrastaurin -0.14 | alvocidib -0.343

KIFC1 (UniProt Q9BW19)
inactive: epoxomicin -0.032 | [1] -0.033 | [2] 0.055 | alvocidib -0.014

KIF21B (UniProt O75037)
inactive: [4] -0.078 | epoxomicin -0.06 | [9] -0.193 | [6] -0.016 | saracatinib -0.181 | [3] -0.328 | [7] 0.09
